The values below come from article PMC8201403.

Sequences of proteins named here, by UniProt entry; tags and fusion partners are left off. A change or cut given only in a name is not applied to a line headed by its entry.
UniProt P02765: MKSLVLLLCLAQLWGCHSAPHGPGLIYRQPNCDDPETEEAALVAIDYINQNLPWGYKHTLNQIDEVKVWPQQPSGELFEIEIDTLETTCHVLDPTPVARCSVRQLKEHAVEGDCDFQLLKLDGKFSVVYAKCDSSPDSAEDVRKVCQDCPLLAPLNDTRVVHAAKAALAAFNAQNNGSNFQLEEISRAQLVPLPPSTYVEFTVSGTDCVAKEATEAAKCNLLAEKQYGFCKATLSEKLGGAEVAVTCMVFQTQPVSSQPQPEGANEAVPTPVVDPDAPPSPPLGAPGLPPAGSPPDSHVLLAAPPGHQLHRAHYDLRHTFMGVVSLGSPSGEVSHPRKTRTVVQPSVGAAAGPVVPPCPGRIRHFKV
UniProt P02787: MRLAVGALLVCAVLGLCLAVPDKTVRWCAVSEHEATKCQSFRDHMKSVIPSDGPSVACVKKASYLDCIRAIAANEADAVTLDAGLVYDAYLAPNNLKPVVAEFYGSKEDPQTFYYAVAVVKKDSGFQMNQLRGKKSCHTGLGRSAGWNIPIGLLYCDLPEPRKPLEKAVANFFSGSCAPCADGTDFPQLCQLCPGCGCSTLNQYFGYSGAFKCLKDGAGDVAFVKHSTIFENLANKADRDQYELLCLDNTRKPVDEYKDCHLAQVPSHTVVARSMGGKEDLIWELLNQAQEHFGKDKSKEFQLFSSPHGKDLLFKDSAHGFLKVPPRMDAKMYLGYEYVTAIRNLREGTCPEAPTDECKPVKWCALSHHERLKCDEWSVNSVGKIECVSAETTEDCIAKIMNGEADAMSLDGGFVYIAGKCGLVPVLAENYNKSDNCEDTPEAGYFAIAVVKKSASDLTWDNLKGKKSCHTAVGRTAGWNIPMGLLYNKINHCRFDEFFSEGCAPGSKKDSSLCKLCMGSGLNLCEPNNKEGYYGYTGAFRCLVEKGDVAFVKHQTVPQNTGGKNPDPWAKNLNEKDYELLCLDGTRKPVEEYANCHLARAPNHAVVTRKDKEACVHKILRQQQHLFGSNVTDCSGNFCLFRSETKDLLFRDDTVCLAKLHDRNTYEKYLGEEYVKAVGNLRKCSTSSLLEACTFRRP
UniProt P68871: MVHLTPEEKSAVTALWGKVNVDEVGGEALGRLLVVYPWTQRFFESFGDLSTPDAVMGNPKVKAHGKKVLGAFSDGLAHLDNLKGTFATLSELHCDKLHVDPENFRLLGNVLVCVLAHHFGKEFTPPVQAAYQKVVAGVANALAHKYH

The target of one assay is AHSG-Mut-HA (UniProt P02765). As to the kind of experiment: co-IP; NDP/NUP-HA (WT or Mut) precipitated with anti-HA in Bel-7402 cells; RPL7A, HBB and HIST1H4H detected with their antibodies (Figure 7A).
The target in another assay is TF-Mut-HA (UniProt P02787). The description is as above.

Results are given in words; binding and its absence hold for the method and conditions named. Binding seen in cells or lysates may run through a third protein.

As for “HBB, endogenous (from UniProt P68871 1-147)”, the binding entry in the assay with AHSG-Mut-HA and with TF-Mut-HA was “no binding” throughout.
